Measured values from PubChem BioAssay AID1117319 (Southern Research Institute, 2015).
Values joined by “and” are separate entries in the source; they are usually repeats but may differ in a detail not shown here. Identical values can stand only once. The whole screen tested about 260,000 compounds, of which about 1,500 (0.58%) were called active. Inconclusive results, whose numbers are uncertain, are shown with a selection of clear calls.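 The calls were made as follows: active = inhibition above a set limit at one or more doses, reproduced on every date tested; inconclusive = results disagree between test dates, or hit never tested in dose response; inactive = the rest.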

The chains behind the UniProt entries cited, without tags or fusion partners. Where a name states a change or a piece, a line headed by the entry shows the natural chain unless it says otherwise.
UniProt P69720: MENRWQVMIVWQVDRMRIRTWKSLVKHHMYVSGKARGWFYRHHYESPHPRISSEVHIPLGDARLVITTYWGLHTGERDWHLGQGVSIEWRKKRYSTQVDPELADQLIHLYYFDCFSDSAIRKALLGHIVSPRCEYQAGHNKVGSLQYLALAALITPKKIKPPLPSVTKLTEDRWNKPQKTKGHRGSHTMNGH
UniProt P69721: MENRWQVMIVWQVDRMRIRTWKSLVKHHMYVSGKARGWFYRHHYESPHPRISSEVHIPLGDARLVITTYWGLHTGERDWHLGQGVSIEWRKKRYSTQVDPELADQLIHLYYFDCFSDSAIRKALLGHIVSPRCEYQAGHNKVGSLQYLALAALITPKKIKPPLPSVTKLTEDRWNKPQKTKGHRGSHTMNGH
UniProt P69722: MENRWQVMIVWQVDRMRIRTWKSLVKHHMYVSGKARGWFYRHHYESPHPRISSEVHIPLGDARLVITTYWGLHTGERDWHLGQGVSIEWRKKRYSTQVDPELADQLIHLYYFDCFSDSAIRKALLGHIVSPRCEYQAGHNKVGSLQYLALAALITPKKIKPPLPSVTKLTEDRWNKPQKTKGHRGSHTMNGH
UniProt P69723: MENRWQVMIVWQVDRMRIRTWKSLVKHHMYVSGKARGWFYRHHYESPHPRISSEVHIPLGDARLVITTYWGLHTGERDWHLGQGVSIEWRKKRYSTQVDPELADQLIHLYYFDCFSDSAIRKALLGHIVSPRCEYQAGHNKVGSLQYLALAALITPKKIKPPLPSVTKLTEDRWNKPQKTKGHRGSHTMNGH
UniProt Q9HC16: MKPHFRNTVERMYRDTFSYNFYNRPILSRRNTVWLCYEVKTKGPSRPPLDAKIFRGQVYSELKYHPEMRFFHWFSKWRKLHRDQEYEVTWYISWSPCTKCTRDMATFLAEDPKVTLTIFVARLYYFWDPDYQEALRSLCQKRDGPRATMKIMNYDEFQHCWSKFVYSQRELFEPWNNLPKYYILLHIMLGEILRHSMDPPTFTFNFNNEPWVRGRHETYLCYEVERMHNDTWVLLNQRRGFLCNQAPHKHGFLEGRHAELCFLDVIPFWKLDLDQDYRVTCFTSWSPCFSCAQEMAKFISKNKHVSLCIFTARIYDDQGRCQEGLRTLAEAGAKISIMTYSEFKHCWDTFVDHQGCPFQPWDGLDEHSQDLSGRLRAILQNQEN

The molecules below were run against Virion infectivity factor (Human immunodeficiency virus type 1 group M subtype B (isolate BH10)) + Virion infectivity factor (Human immunodeficiency virus type 1 group M subtype B (isolate BRU/LAI)) + Virion infectivity factor (Human immunodeficiency virus type 1 group M subtype B (isolate PCV12)) + Virion infectivity factor (Human immunodeficiency virus type 1 group M subtype B (isolate HXB2)) + DNA dC->dU-editing enzyme APOBEC-3G (Homo sapiens) (UniProt P69720+P69721+P69722+P69723+Q9HC16) (assay: inhibitors of Vif binding to APOBEC3G peptide, primary screen, biochemical, TR-FRET, GST-Vif 1-94, biotin-A3G peptide, dose response retest (AID 1117319;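 also: Vif residues 1-94 fused to GST binding biotinylated APOBEC3G peptide 110-148; 0% = full assay without inhibitor and 100% = GST in place of GST-Vif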)). Details: stronger effect = higher value.
In the case of COC(=O)c1ccc(CN(C(=O)N2CCN(C)CC2)S(=O)(=O)c2ccc(C)cc2)cc1, the inhibition is reported as inactive: 2.32%. With O=C(CN1CCN(c2ccccc2)CC1)c1c[nH]c2ccccc12 the inhibition was inactive: -7.04%. For N#Cc1c(-c2ccccc2Cl)noc1/C=C/Nc1ccc(C(=O)O)cc1, the inhibition was inconclusive: 34.2%. With Cn1c(SCC(=O)NCc2ccco2)nnc1-c1c[nH]c2ccccc12 the inhibition was inconclusive: 41.8%. With Cc1cc(/C=C(\C#N)C(=O)NCC2CCCO2)c(C)n1-c1ccc(Cl)cc1 (centres undefined) the inhibition was inconclusive: 33.1%. In the case of Cc1nc2ccccn2c(=O)c1CCN1CCC(C(=O)c2ccc(F)cc2)CC1, the inhibition is reported as inconclusive: 57.6%. For COc1ccc(Nc2ccc([N+](=O)[O-])cc2[N+](=O)[O-])cc1, the inhibition was inactive: -7.01%. In the case of O=C(OC1CCCCC1)c1ccc(NC(=O)C2CCCCC2)cc1, the inhibition is reported as inactive: 2.8%. With CC(=O)Nc1ccc(NC(=O)CSc2nnc(CNc3ccc(F)cc3)n2CC2CCCO2)cc1 (centres undefined) the inhibition was inactive: -7.5%. In the case of Cn1c(SCC(=O)NCc2ccc3c(c2)OCO3)nnc1-c1cc2ccccc2cc1O, the inhibition is reported as inactive: 5.67%. With CC1CCCN(C(=O)NC(=O)c2ccc(Cl)cc2)C1 (centres undefined) the inhibition was inactive: -0.86%. In the case of CN1CCN(C(=O)c2ccccc2-c2nc(-c3ccccc3)no2)CC1, the inhibition is reported as inconclusive: 25.6%. CCOC(=O)C1=C(C)NC2=C(C(=O)C(C(=O)OCC)C(c3ccco3)C2)C1c1ccccn1 (centres undefined) was tested, and the inhibition was inconclusive: 42.9%. For O=C(N/N=C/c1cn(-c2ccccc2)nc1-c1cc2ccccc2o1)c1ccccc1Br, the inhibition was inconclusive: 36.2%. With COc1ccc(-c2nnnn2C)cc1S(=O)(=O)NCc1ccccc1 the inhibition was inconclusive: 37.3%. In the case of Cc1cccc(N2CCN(C(=O)c3ccc4nc(-c5ccco5)c(-c5ccco5)nc4c3)CC2C)c1 (centres undefined), the inhibition is reported as inconclusive: 52.7%. O=C(COc1ccc(Cl)cc1)NCc1nnc(SCC(=O)NCc2ccc3c(c2)OCO3)o1 was tested, and the inhibition was inconclusive: 54.2%. For O=C(CNC(=O)c1ccccc1F)OC(C(=O)Nc1cc(C(F)(F)F)ccc1Cl)c1ccccc1 (centres undefined), the inhibition was inconclusive: 48.4%. With Oc1ccc(N=Nc2ccc3c(c2)OCCO3)c(O)c1 the inhibition was inactive: 6.46%. With CC1=CC(=O)C=C(C)C1=NOC(=O)c1cccc([N+](=O)[O-])c1 the inhibition was inconclusive: 44.1%. O=S(Cc1ccc(Br)cc1)Cc1nnc(SCc2ccc(Br)cc2)n1-c1ccccc1 (centres undefined) was tested, and the inhibition was inconclusive: 57%. N#Cc1ccccc1Cn1cc(/C=C/[N+](=O)[O-])c2ccccc21 was tested, and the inhibition was inconclusive: 41.7%. For Cc1ccc(NC(=O)CSc2nnc(-c3ccco3)c(-c3ccco3)n2)cc1, the inhibition was inactive: 25.5% and inconclusive: 62.5%. CS(=O)(=O)N(CC(=O)N1CCN(Cc2ccccc2)CC1)C1CCCCC1 was tested, and the inhibition was inconclusive: 52.4%. In the case of COCC(C)n1c(SCC(=O)Nc2nccs2)nc2ccccc2c1=O (centres undefined), the inhibition is reported as inconclusive: 57%. For CC1CCc2c(sc(NC(=O)CSc3nc4c(c(C(F)(F)F)n3)CCc3ccccc3-4)c2C(N)=O)C1 (centres undefined), the inhibition was inconclusive: 62.5%. COc1ccc(CCNC(=O)COC(=O)/C=C/c2ccc(OCC#N)c(OC)c2)cc1OC was tested, and the inhibition was inactive: 5.39%. With CCOC(=O)c1sc2nc(SC)nc(-c3ccccc3)c2c1N the inhibition was inconclusive: 44.3%. Cn1c(SCCOc2ccc(Cl)cc2)nnc1-c1ccncc1 was tested, and the inhibition was inactive: 3.6%. For COC(=O)C(Cc1ccccc1)NC(=O)c1cccc(S(=O)(=O)N(C)C)c1 (centres undefined), the inhibition was inconclusive: 62.4%. CCCC(=O)c1cc(-c2nc3ccccc3n2C)n(C)c1 was tested, and the inhibition was inconclusive: 42.7%. In the case of CCOc1ccc(S(=O)(=O)NCCC(=O)OCC(=O)c2ccc[nH]2)cc1, the inhibition is reported as inconclusive: 56.8%. In the case of Cc1ccccc1C(=O)NC1CCN(CC(=O)NCc2cccs2)CC1, the inhibition is reported as inconclusive: 58.3%. Cc1cnc(C(=O)OCC(=O)c2cc(C)n(C)c2C)cn1 was tested, and the inhibition was inconclusive: 52.9%. Cc1cccc(NC(=O)CSc2nc(NS(=O)(=O)c3ccccc3)cc(=O)[nH]2)c1 was tested, and the inhibition was inconclusive: 45.5%. With CC(C)N(C(=O)CSc1nnc(-c2cc3ccccc3cc2O)n1Cc1ccco1)C(C)C the inhibition was inactive: 9.68%. COC(CNC(=O)c1ccc2c3c(onc13)-c1ccccc1C2=O)OC was tested, and the inhibition was inconclusive: 63.8%. For O=C(O)C(=O)Cc1c[nH]c2ccccc12, the inhibition was inconclusive: 42.4%. With N=C1/C(=C\c2coc3ccccc3c2=O)C(=O)N=C2SC(c3ccncc3)=NN12 the inhibition was inconclusive: 36.9%. In the case of O=C(O)CC1S/C(=N/N=C/C=C/c2ccccc2)NC1=O (centres undefined), the inhibition is reported as inconclusive: 43.9% and inconclusive: 51.8%. In the case of CCCCCC(=O)Nc1cccc(C2=NOC3(C2)C[C@H](C(N)=O)N(C(=O)c2ccccc2)C3)c1 (some centres undefined), the inhibition is reported as inconclusive: 54.6%. For Cc1cccc(N2CCN(c3ccc(NC(=O)/C=C(/C(=O)O)c4ccccc4)cc3)CC2)c1, the inhibition was inconclusive: 34.8%. With Cc1ccc(C)c(S(=O)(=O)N/N=C2/CCCc3ccccc32)c1 the inhibition was inconclusive: 57.5%. With CC(C)c1cc(NCC2CCCO2)n2c(nc3ccccc32)c1C#N (centres undefined) the inhibition was inconclusive: 54.9%. With CCOC(=O)C(NC(=O)CCl)(Nc1sc(C)c(CC)c1C#N)C(F)(F)F (centres undefined) the inhibition was inconclusive: 46.3%. COc1ccc(C2c3ccsc3CCN2C(=O)C(C)(C)C)cc1 (centres undefined) was tested, and the inhibition was inconclusive: 48.2%. CCOC(=O)c1c(NC(=O)Cc2cccs2)sc2c1CCCC2 was tested, and the inhibition was inactive: -5.96%. With Cc1ccc(NC(=O)CSc2nnc(Cc3csc(C)n3)o2)cc1 the inhibition was inconclusive: 41.1%. O=C(CCl)N1c2ccccc2OCC1c1ccccc1 (centres undefined) was tested, and the inhibition was inconclusive: 43.2%. For O=C(NCc1ccco1)c1ccc2c(c1)C(=O)c1ccccc1-2, the inhibition was inconclusive: 39%. In the case of COc1cc(CNCc2ccccc2)c(Br)cc1OC1CCCC1, the inhibition is reported as inconclusive: 47.6%. Oc1c(CN2CCCCC2)cc(Br)c2cccnc12 was tested, and the inhibition was inconclusive: 54.7%. O=C(NNc1ccc([N+](=O)[O-])cc1)C12CC3CC(CC(C3)C1)C2 was tested, and the inhibition was inconclusive: 59.1%. With CC(C)(C(=O)O)n1cncn1 the inhibition was inconclusive: 37.5%.
